For one substance, binding results are on record in publication PMC5228124.

Protein sequences, listed by entry. Tags and fused reporters are not part of them.
UniProt Q8BG40: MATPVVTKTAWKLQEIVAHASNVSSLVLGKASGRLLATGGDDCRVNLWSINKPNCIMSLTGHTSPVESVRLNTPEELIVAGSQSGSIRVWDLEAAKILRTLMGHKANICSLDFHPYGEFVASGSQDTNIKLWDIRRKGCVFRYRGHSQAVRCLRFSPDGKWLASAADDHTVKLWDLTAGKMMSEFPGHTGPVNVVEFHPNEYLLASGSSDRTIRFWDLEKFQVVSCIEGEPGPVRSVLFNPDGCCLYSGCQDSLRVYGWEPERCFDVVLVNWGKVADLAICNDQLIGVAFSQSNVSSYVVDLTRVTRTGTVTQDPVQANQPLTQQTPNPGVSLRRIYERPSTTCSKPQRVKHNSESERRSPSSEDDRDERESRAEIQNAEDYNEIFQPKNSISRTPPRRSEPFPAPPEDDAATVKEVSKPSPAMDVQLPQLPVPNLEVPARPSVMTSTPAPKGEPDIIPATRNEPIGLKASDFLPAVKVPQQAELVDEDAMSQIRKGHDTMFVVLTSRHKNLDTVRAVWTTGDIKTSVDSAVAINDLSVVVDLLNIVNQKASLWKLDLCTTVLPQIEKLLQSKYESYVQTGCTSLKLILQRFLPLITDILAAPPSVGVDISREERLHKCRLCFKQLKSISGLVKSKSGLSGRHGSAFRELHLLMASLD
UniProt E9Q7G0: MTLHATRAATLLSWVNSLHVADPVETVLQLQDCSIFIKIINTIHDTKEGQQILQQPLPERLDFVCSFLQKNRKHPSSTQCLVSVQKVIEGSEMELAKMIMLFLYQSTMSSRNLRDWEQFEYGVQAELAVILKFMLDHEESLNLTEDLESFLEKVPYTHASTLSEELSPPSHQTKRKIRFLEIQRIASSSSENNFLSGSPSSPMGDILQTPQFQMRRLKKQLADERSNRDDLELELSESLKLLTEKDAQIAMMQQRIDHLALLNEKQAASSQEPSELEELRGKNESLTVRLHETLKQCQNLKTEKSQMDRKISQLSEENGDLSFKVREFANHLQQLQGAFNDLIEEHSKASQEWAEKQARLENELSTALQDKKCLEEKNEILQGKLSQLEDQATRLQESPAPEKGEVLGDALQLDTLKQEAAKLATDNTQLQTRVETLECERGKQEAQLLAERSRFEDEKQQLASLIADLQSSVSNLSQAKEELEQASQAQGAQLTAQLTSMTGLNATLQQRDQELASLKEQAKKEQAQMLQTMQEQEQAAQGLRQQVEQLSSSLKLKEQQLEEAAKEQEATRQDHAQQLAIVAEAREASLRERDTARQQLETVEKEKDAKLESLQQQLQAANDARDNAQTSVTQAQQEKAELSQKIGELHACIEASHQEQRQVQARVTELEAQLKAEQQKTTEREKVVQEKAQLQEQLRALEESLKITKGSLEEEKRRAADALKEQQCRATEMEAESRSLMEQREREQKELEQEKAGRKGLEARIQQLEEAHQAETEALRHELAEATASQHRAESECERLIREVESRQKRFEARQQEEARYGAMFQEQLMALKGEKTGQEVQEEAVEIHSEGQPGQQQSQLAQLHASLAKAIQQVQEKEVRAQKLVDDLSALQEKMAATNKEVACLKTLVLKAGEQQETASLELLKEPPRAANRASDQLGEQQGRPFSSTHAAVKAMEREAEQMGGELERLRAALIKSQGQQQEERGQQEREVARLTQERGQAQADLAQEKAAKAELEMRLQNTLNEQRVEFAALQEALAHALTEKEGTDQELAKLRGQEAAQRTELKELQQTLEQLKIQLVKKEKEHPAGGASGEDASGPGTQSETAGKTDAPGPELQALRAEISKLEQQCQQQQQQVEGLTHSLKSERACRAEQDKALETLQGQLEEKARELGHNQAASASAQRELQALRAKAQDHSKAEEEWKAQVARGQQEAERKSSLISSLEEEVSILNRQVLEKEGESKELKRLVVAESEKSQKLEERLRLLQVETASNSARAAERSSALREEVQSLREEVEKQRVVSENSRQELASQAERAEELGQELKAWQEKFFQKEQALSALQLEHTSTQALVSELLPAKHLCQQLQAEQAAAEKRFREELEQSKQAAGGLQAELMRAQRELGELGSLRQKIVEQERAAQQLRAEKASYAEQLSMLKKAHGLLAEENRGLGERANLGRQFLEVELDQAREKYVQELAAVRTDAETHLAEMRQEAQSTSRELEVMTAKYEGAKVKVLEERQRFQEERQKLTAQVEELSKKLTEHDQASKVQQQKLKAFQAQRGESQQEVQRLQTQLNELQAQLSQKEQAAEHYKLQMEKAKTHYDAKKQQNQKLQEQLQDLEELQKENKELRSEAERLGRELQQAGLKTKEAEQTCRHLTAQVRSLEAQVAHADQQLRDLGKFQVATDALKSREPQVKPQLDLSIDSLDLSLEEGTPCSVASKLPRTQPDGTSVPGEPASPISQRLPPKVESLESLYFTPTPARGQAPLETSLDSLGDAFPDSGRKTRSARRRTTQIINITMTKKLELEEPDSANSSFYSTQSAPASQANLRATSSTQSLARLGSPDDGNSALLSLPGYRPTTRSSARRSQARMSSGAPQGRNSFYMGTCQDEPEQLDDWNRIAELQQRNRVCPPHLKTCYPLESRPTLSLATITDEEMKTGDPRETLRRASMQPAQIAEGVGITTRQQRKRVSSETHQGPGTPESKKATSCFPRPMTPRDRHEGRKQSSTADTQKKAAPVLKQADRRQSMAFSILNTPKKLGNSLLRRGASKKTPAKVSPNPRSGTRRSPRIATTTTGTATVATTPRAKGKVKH

These are yes or no findings as the source states them, for the method shown. In cells and extracts the contact can be indirect. Here binding means that the protein was enriched with, or labelled near, the bait; the list need not be complete.

This test has as its target katanin p80 subunit (KATNB1), endogenous in mouse brain (mouse (endogenous in mouse brain)) (UniProt Q8BG40). Description: affinity purification with mass spectrometry; anti-p80 antibody cross-linked to protein G-Sepharose, mouse brain extract, 2 h, three washes, eluate analysed by LC-MS/MS.

For the substance “NuMA (nuclear mitotic apparatus protein), endogenous mouse (from UniProt E9Q7G0 1-2094)”, the binding entry is recorded as “binds”.
